Measured values from PubChem BioAssay AID662 (National Center for Advancing Translational Sciences (NCATS), 2007).
The list shows a part of the results. These are further read-outs of the screen, such as a control signal, another cell line or another target. No call is given for them. Compounds called inactive in the main read-out are mostly missing here. Potencies come from curve fits of mixed quality, noted in brackets.

Experiment: Cell signaling CRE-BLA (Fsk stim)
Details: CHO CRE-bla reporter (cAMP response element driving beta-lactamase), forskolin EC10, beta-lactamase ratio; measured here: 460 nm blue channel
Description: NIH Molecular Libraries Screening Centers Network [MLSCN]
NIH Chemical Genomics Center [NCGC]
Assay Provider: Marshall W. Nirenberg, U.S. National heart lung & blood institute
Memories persist for different lengths of time, from seconds or minutes to a lifetime. There are two kinds of memory: short-term memory (STM) and long-term memory (LTM). STM lasts for minutes to hours, which maybe mediated by modifications of molecules involved in synaptic functions. LTM lasts for days or longer, and may be due to the formation of new synapses or restructuring of existing synapses. LTM, but not STM, requires gene transcription and synthesis of proteins. CREB (cyclic-AMP Responsive Element Binding Protein) is one of the candidates plays an important role for enhancement of some types of LTM. CREB, a family of transcription factors, regulates the transcription of genes containing cAMP Responsive Elements (CRE). CRE is a nucleotide sequence often found in the promoter regions of genes that are binding sites for CREB.
Using a beta-lactamase reporter-gene under control of cAMP responsive element, a cell-based assay [CellSensor(TM) CRE-bla CHO developed by Invitrogen Corp.] was used to measure forskolin-induced signaling. Library compounds were measured for their ability to modulate positively or negatively the action of EC10 NKH 477, a water soluble forskolin, on reporter gene activity. Compounds were screened in a titration series in 1536-well format. Positive and negative modulators were identified based on the AC50 values derived from the screening data.
NCGC Assay Protocol Summary
2000 cells/5uL in Opti-MEM medium containing 0.5% dialyzed FBS, 0.1 mM NEAA, 1 mM sodium pyruvate and 10 mM HEPES was dispensed into 1536-well plates and cells were cultured at 37 degrees Celsius overnight. […] And then the plates were incubated at 37 degrees Celsius for 3 hours. 1 uL of CCF4-dye mixture was added to each well. After incubated at room temperature for 2 hours the plates were measured on an EnVision plate reader at Excitation 405nm, Emission1=460nm and Emission 2=530nm. The %Activity was determined from the ratio of 460nm/530nm.
Keywords: NIH Roadmap, MLSCN, MLSMR, qHTS, NCGC, CRE, beta-lactamase reporter-gene assay.

SMILES | AC50
COc1ccc(NC(=O)CCOc2ccccc2)c(OC)c1 | 0.631 µM [falling, full curve]
CC(=O)c1sc(Nc2ccccn2)nc1C | 12.6 µM [rising, partial curve]
COc1cccc(C2=Nn3c(nnc3-c3ccccc3O)SC2)c1 | 2.51 µM [rising, full curve]
Nc1ccc(O)cc1C(=O)OCC(=O)C12CC3CC(CC(C3)C1)C2 | 12.6 µM [rising, single point]
Cc1cc2c(c(Sc3ccccc3)n1)C(=O)OC2 | 25.1 µM [rising, single point]
COc1cccc(Cn2c(=O)c(-c3cn(C)c4ccccc34)nc3cnc(N4CCOCC4)nc32)c1 | 12.6 µM [rising, partial curve]
CCOC(=O)c1sc(NC(=O)c2c(C)noc2C)c(C(=O)OCC)c1C | 0.00501 µM [falling, full curve, poor fit]
COCc1cc(C)nc(SCC(=O)Nc2cccc3cccnc23)c1C#N | 12.6 µM [rising, partial curve]
O=c1[nH]c2ccccc2nc1-c1cccs1 | 10 µM [rising, partial curve]
Cc1sc2nc(C(C)C)nc(SCC(=O)NCc3ccco3)c2c1C | 7.94 µM [rising, partial curve]
CCCOc1ccc(-c2nc(C#N)c(N3CCN(CC)CC3)o2)cc1 | 20 µM [rising, partial curve]
Cc1ccc(NC(=O)c2noc3c2CCCCC3)cc1C | 20 µM [rising, single point]
COC(=O)c1ccc(Cn2cnc3ccccc3c2=O)cc1 | 12.6 µM [rising, single point]
COc1ccc(-n2cnnc2SCc2csc(-c3ccccc3)n2)cc1 | 10 µM [rising, single point]
Cc1cccc(C)c1NS(=O)(=O)c1ccc(F)cc1 | 25.1 µM [falling, single point]
CCOC(=O)Cn1c(=O)oc2cc(S(=O)(=O)NC3CCCc4ccccc43)ccc21 (centres undefined) | 12.6 µM [rising, partial curve]
CC(C)[C@@H](CC(=O)N[C@@H]1CCCC[C@H]1C(=O)N[C@H](CC(=O)N[C@@H](CCC(=O)O)CC(=O)O)Cc1c[nH]c2ccccc12)NC(=O)C[C@H](CO)NC(=O)[C@@H]1CNCC[C@H]1N | 10 µM [falling, partial curve]
Cc1cc(C)nc(-n2nc(C)c(C3(O)C(=O)Nc4ccc(F)cc43)c2N)n1 (centres undefined) | 3.98 µM [falling, partial curve]
O=C(COC(=O)c1ccco1)NCC1CCCO1 (centres undefined) | 12.6 µM [rising, single point]
Nc1nc2sc3c(c2c(=O)s1)CCCC3 | 7.94 µM [rising, partial curve]
O=C(Nc1ccc(F)cc1)N1CCC(c2nc3c(nnn3Cc3cccc(Cl)c3)c(=O)[nH]2)CC1 | 25.1 µM [rising, single point]
O=[N+]([O-])c1cc(Cl)cc2c1nc(NCCO)c1ccccc12 | 5.01 µM [rising, single point]
COc1ccc(C(=O)COC(=O)c2ccc(OC)c(OC)c2)cc1OC | 10 µM [rising, partial curve]

Fetched one by one from the entries so far (5):
SMILES | AC50
Cc1cc(C)nc(-n2nc(C)c(C3(O)C(=O)Nc4ccc(F)cc43)c2N)n1 (centres undefined) | 3.98 µM [falling, partial curve]
Cc1cccc(C)c1NS(=O)(=O)c1ccc(F)cc1 | 25.1 µM [falling, single point]
Cc1ccc(NC(=O)c2noc3c2CCCCC3)cc1C | 20 µM [rising, single point]
O=C(Nc1ccc(F)cc1)N1CCC(c2nc3c(nnn3Cc3cccc(Cl)c3)c(=O)[nH]2)CC1 | 25.1 µM [rising, single point]
CCOC(=O)Cn1c(=O)oc2cc(S(=O)(=O)NC3CCCc4ccccc43)ccc21 (centres undefined) | 12.6 µM [rising, partial curve]

Next part.

SMILES | AC50
COc1cccc(CNc2nc3nc(C)cc(C)n3n2)c1 | 0.631 µM [rising, full curve]
COc1nc(NCC(C)C)nc(Oc2ccc(=O)n(-c3ccccc3)n2)n1 | 10 µM [rising, partial curve]
CCn1nc(C(=O)NCCc2ccc(S(N)(=O)=O)cc2)c2ccccc2c1=O | 15.8 µM [rising, single point]
Cc1ccc2nc(N3CCN(Cc4ccc(F)cc4)C3=O)c(C)cc2c1 | 0.794 µM [falling, full curve]
Cc1ccccc1-c1ccc2ncnc(N3CCN(C)CC3)c2c1 | 5.01 µM [rising, partial curve]
COc1ccc(-c2noc(CCC(=O)Nc3ccc4c(c3)OCCO4)n2)cc1 | 0.631 µM [falling, full curve]
Cc1ccc(-c2cn3nc(C)c(C)nc3n2)cc1 | 3.98 µM [rising, partial curve]
CC(C)(C)n1ncc2c(=O)n(CC(=O)NCc3ccccc3)cnc21 | 0.501 µM [falling, partial curve]
CCn1c(N)nc2c1c(=O)n(C)c(=O)n2C | 15.8 µM [rising, partial curve]
O=C(OCCN=C1NS(=O)(=O)c2ccccc21)C1CC(=O)N(c2ccc(Cl)cc2)C1 (centres undefined) | 0.00316 µM [falling, full curve, poor fit]
Cc1cnc(CNc2ncnc3ccc(-c4ccc5c(c4)OCO5)cc23)cn1 | 12.6 µM [rising, partial curve]
c1ccc(-c2noc(-c3ccc4c(c3)OCO4)n2)nc1 | 25.1 µM [rising, single point]
CC(=O)Nc1ccc(C(=O)CCl)cc1 | 31.6 µM [falling, single point]
COC(=O)[C@@]1(Cc2ccccc2)[C@H]2c3cc(C(=O)N4CCCC4)n(CCc4ccccn4)c3C[C@H]2CN1C(=O)c1ccccc1 | 7.94 µM [rising, partial curve]
N#Cc1nc(Cc2ccccc2)oc1N1CCC(Cc2ccccc2)CC1 | 3.98 µM [rising, partial curve]
c1ncc(CC2CCNCC2)[nH]1 | 31.6 µM [falling, single point]
COCCNc1nc(-c2ccccc2C)nc2ccccc12 | 10 µM [rising, partial curve]
Fc1ccc(-c2csc3nnc(SCc4cccnc4)n23)cc1 | 15.8 µM [rising, single point]
C=CCNc1sc(C(=O)C(C)(C)C)c(N)c1C#N | 7.94 µM [rising, partial curve]
CCOC(=O)CCn1nc(-c2ccccc2)cc1N | 0.1 µM [falling, full curve, poor fit]
CN(C)c1ncc2nc(-c3cc(F)cc(F)c3)c(=O)n(C[C@H]3CCCO3)c2n1 | 0.01 µM [rising, full curve]
CNC[C@H](O)c1ccc(OC(=O)C(C)(C)C)c(OC(=O)C(C)(C)C)c1 | 10 µM [falling, partial curve]
CCOC(=O)c1sc(NC(=O)CSc2nc(-c3ccco3)cc(C(F)(F)F)n2)c(C#N)c1C | 12.6 µM [falling, single point]

SMILES | AC50
NC1=NC2(CCC(c3ccccc3)CC2)n2c(nc3ccccc32)N1 (centres undefined) | 1 µM [falling, full curve]
CCN(C(=O)c1coc(=O)c(Br)c1)c1ccc2c(c1)OCO2 | 3.16 µM [falling, single point]
CN(Cc1ccccc1)Cc1nc2c(c(=O)n(C)c(=O)n2C)n1CCc1ccccc1 | 25.1 µM [rising, single point]
COc1ccc(N=CC2=C(O)CC(C)(C)CC2=O)cc1 | 12.6 µM [rising, single point]
C[C@@H]1O[C@@H](n2cc(F)c(=O)[nH]c2=O)[C@H](O)[C@@H]1O | 25.1 µM [falling, partial curve]
CN(CC(=O)N1CCc2ccccc21)S(=O)(=O)c1cccs1 | 0.0631 µM [falling, full curve, poor fit]
Cc1c[n+]([O-])n(-c2ccc(C(=O)O)cc2)n1 | 0.00398 µM [falling, full curve, poor fit]
COCn1c(-c2ccc(OC)c(OC)c2)nc2ccccc21 | 0.398 µM [falling, partial curve]
O=C(CCNS(=O)(=O)c1ccc(Br)s1)NC1CCCC1 | 0.02 µM [falling, partial curve]
Cc1nn2c(=O)cc(CSc3nc4ccccc4[nH]3)nc2s1 | 2 µM [rising, full curve]
CCn1c2ccccc2c2nnc(SCc3ccc(C(=O)OC)o3)nc21 | 1.26 µM [rising, full curve]
COc1cccc(Cn2nnc(C(=O)Nc3cc(Cl)ccc3OC)c2N)c1 | 1.26 µM [rising, full curve]
O=C(CCCSc1nc2ccccc2[nH]1)NC1=NCCS1 | 10 µM [rising, partial curve]
COC(=O)C1=C(C)Nc2nc(-c3ccccc3)nn2C1c1ccc(C)o1 (centres undefined) | 10 µM [rising, partial curve]
CCc1nc(SCC(=O)Nc2cccc(C(F)(F)F)c2)c2c(=O)n(C)c(=O)n(C)c2n1 | 25.1 µM [rising, single point]
CNC(=O)c1cccc(N2CCCC2=O)c1 | 0.251 µM [rising, full curve, poor fit]
CC(C)C(c1nnnn1Cc1ccco1)N1CCN(c2nc3ccccc3s2)CC1 (centres undefined) | 10 µM [falling, single point]
CCC(c1nnnn1C1CCCCC1)N(Cc1ccco1)Cc1cc2ccc(OC)cc2[nH]c1=O (centres undefined) | 20 µM [rising, single point]
CCOC(=O)c1c(NC(=O)c2noc3c2CCCC3)sc2c1CCCC2 | 3.16 µM [falling, single point]
Cc1cc(Nc2ccc(C(C)C)cc2)n2ncnc2n1 | 25.1 µM [rising, single point]
Cc1cc(NCc2ccc3c(c2)OCO3)n2nc(C)nc2n1 | 10 µM [rising, single point]
CCCSc1ccc2nc(NC(=O)OC)[nH]c2c1 | 5.01 µM [rising, partial curve]
COC(=O)CSc1nnc2n(C3CCCCC3)c(=O)c3c4c(sc3n12)CCCC4 | 5.01 µM [rising, partial curve]
